Reference: patent publication US20250059284A1
No constants are given. Whether binding was seen depends on the method and setting. Some results given as binding are weak or reduced against the parent protein; the word gives no strength. Where a sequence is shown, tags or fusion partners need not be part of it. Each block holds one binder with its values, some of them ahead of it.

Legend:
[1] = biological target: T1, galectin-10 (Gal10), species and tag not stated for the assay (UniProt Q05315); experiment: SPR Biacore 3000, binding activity after nebulization (FIG. 9)
T1 sequence (looked up): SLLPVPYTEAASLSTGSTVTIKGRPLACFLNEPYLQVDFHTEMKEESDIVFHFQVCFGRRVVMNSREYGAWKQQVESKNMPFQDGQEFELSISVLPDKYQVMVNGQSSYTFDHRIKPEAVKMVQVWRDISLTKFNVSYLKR

[2] = biological target: T1, galectin-10 (Gal10), species and tag not stated for the assay; experiment: SPR Biacore 3000, galectin-10 binding activity after nebulization
[3] = biological target: T1, galectin-10 (Gal10), species and tag not stated for the assay; experiment: SPR (Biacore 3000), functional active concentration of nebulized samples (Aerogen Solo, three devices) against titration curves of the T0 reference sample, as % relative activity

- binding [1]: binds
- binding [2]: binds
- binding [3]: binds
B1: g20H09 human Fab (Fab, V domains shown)
VH: EVQLLESGGGLVQPGGSLRLSCAASGFTFRSYDMSWVRQAPGKGLEWVSAIKWHRITYYADSVKGRFTISRDNSKNTLYLQMNSLRAEDTAVYYCATTHGIGTLGFGSWGQGTLVTVSS
VL: SYELTQPLSVSVALGQTARITCDGNNIGSKSAQWYQQKPGQAPVLVIYADEYRPEGIPERFSGSNSGNTATLTISRAQAGDEADYYCQVWDGSAAVFGGGTQLTVL

- binding [1]: binds
- binding [2]: binds
- binding [3]: binds
B2: g23H09 human Fab (Fab, V domains shown)
VH: EVQLLESGGGLVQPGGSLRLSCAASGFTFRSYDMSWVRQAPGKGLEWVSAIAQFQHWTYYADSVKGRFTISRDNSKNTLYLQMNSLRAEDTAVYYCATTHGIGTLGFGSWGQGTLVTVSS
VL: B1 VL

- binding [1]: binds
- binding [2]: binds
- binding [3]: binds
B3: g24F02_N53A human Fab (Fab, V domains shown)
VH: EVQLLESGGGLVQPGGSLRLSCAASGFTFSSYAMSWVRQAPGKGLEWVSAINAGGGSTSYADSVKGRFTISRDNSKNTLYLQMNSLRAEDTAVYYCAKGLRVGVLGFDYWGQGTLVTVSS
VL: B1 VL
